The full ranking holds about 3,200 compounds; the median of “TSA(without NAD+) / Primary screening (TSA) / delta Tm (K)” is about -0.07, and the highest 2% start at about 0.37. This is one part of the list.
Target: NAD-dependent deacetylase Sirtuin 1 (human, UniProt Q96EB6)
Assay: primary screen, delta tm
Parameters: single well (n = 1)
Conditions: 10 µM
Procedure, shortened: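 Thermal shift of Sirtuin 1 measured without NAD+, compound at 10 µM (n = 1); value is ΔTm, with hits defined as ΔTm > 0.45 K or < −1.5 K. Hits retested at 5, 10, 20 µM (n = 4) and counterscreened on bovine carbonic anhydrase and ABL1 SH2 domain.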

Sequences of proteins named here, by UniProt entry; tags and fusion partners are left off. Residues count along the entry.
UniProt Q96EB6, 2-747 limits assumed: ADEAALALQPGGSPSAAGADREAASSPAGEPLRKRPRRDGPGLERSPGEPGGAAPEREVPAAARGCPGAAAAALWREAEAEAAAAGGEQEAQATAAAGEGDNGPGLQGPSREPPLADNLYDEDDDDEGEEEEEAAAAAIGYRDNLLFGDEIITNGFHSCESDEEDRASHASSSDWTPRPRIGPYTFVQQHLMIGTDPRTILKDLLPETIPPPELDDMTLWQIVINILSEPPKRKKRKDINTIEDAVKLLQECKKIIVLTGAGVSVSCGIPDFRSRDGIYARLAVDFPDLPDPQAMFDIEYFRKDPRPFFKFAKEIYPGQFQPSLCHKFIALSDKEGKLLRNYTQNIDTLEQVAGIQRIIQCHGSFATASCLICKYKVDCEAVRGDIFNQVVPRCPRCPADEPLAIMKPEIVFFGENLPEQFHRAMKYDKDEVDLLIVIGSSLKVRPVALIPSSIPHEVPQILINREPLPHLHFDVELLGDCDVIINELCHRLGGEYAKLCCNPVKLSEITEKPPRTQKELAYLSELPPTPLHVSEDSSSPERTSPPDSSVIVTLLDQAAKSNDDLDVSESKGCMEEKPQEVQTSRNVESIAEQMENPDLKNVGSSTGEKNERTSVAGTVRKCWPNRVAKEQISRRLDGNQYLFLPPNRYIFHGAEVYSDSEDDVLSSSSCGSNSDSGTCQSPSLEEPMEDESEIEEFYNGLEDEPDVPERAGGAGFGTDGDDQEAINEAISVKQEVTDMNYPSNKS

| Structure (SMILES) | TSA(without NAD+) / Primary screening (TSA) / delta Tm (K) |
| --- | --- |
| NC(=O)C1CCCN(C(=O)c2cc3c(Cl)c(Cl)ccc3[nH]2)C1 (stereo not shown) | -0.02 K |
| Cc1cn2c3c(=O)n(CCC(C)C)c(=O)n(C)c3nc2n1CCC(C)C | -0.17 K |
| Cc1ccc(C)c(NC(=O)COc2ccc3c4c(c(=O)oc3c2)CCC4)c1 | -0.01 K |
| O=C(CN1CCN(C(=O)CCc2c[nH]c3ccccc23)CC1)Nc1ccccc1 | -0.23 K |
| CC(=O)N1CCCc2cc(S(=O)(=O)Nc3cccc4ccccc34)ccc21 | -0.05 K |
| COc1cccc(NC(=O)c2cccc(S(=O)(=O)N(C)c3ccc(C)cc3)c2)c1 | -0.02 K |
| O=C(NC1CC1)C1CCCN1C(=O)c1n[nH]c2ccccc12 (stereo not shown) | -0.22 K |
| Cc1nc2cc(C(=O)Nc3ccc(NC(=O)N4CCCCCC4)cc3)ccc2n1C | -0.04 K |
| N#Cc1ccccc1S(=O)(=O)N1CCCC(c2cc(C(N)=O)[nH]n2)C1 (stereo not shown) | -0.22 K |
| Cc1ccc(N(C)S(=O)(=O)c2cccc(C(=O)Nc3ncc(C)s3)c2)cc1 | -0.12 K |
| CC(NC(=O)Cn1ccc(=O)c2ccccc21)C12CC3CC(CC(C3)C1)C2 (stereo not shown) | 0.05 K |
| O=C(NCCS(=O)(=O)N1CCc2ccccc21)Nc1ccn(Cc2ccccc2)n1 | 0.07 K |
| c1ccc(-n2ncc3c(N4CCCC4)ncnc32)cc1 | -0.12 K |
| CSc1nnnn1-c1cccc(NC(=O)NC(C)C2CCCO2)c1 (stereo not shown) | -0.17 K |
| CC(C)(C)CC(NCc1ccc(S(=O)(=O)CCO)cc1)C1CC1 (stereo not shown) | -0.01 K |
| c1ccc2c(c1)CCC/C2=N/Nc1nc2ccccc2[nH]1 | -0.08 K |
| CC(OC(=O)c1ccccc1NS(=O)(=O)c1ccc2c(c1)OCCO2)C(=O)NC(C)C1CC2CCC1C2 (stereo not shown) | -0.08 K |
| CC(C)(C)C(N)CN (stereo not shown) | -0.18 K |
| CCCNCC | -0.05 K |
| CCOc1cc(/C=N/NC(=O)c2cc3c(s2)CCCC3)ccc1OCC(=O)Nc1cccc(C(F)(F)F)c1 | 5.11 K |
| CC1CCc2c(sc3ncnc(N4CCCN(CC(N)=O)CC4)c23)C1 (stereo not shown) | -0.18 K |
| Cc1c(CCO)c(=O)n2c([nH]c3ccccc32)c1C#N | 0.07 K |
| COc1ccc(/C=C2/COc3ccc(Br)cc3C2=O)c(OC)c1OC | -0.15 K |
| O=C(O)C1CC(=O)N(c2ccc(S(=O)(=O)Nc3ccc(F)c(F)c3)cc2)C1 (stereo not shown) | 0.08 K |

| Structure (SMILES) | TSA(without NAD+) / Primary screening (TSA) / delta Tm (K) |
| --- | --- |
| Cc1cccc(C2NC(=O)c3ccccc3N2C)c1 (stereo not shown) | -0.07 K |
| CCc1cc2c(N3CCCC(c4cc(C(N)=O)[nH]n4)C3)ncnc2s1 (stereo not shown) | 0.09 K |
| CC(C)CCCC(C)NC(=O)c1cc(-c2ccccc2)nc2c(C(N)=O)ncn12 (stereo not shown) | 0.12 K |
| CC1Oc2ccc(NC(=O)c3cccc(S(=O)(=O)N(C)c4ccccc4)c3)cc2NC1=O (stereo not shown) | -0.02 K |
| COc1ccccc1C(=O)NCC(=O)OCC(=O)Nc1ccc(C(N)=O)cc1 | -0.11 K |
| Sc1ncnc2c1oc1ccccc12 | -0.23 K |
| CCn1nc(C(=O)NC2CCCc3ccccc32)c2ccccc2c1=O (stereo not shown) | -0.44 K |
| NC(=O)COC(=O)CC1Sc2ccc(C(F)(F)F)cc2NC1=O (stereo not shown) | 0.02 K |
| OC(CNCCc1c[nH]c2ccccc12)c1ccccc1 (stereo not shown) | -0.23 K |
| N#C/C(=C/c1ccc(-c2cc(Cl)ccc2Cl)o1)C(=O)Nc1cccc2ncccc12 | -0.12 K |
| Cc1sc2ncnc(N3CCC(C(=O)N4CCC(C(N)=O)CC4)CC3)c2c1C | 0.06 K |
| CC(C)c1ccc(OCc2nnc(SCC(=O)Nc3ccccc3-c3ccccc3)n2N)cc1 | -0.15 K |
| O=C(O)C1CC(=O)N(c2ccc(S(=O)(=O)N3CCCc4cccc(F)c43)cc2)C1 (stereo not shown) | 0.07 K |
| CC(=O)N(C)CC(=O)NCC1CC2c3ccccc3C1c1ccccc12 (stereo not shown) | -0.08 K |
| CC1CCN(C)c2ccccc2N1CCOc1ccc(S(N)(=O)=O)cc1 (stereo not shown) | -0.02 K |
| CC(OC(=O)c1cccc(S(=O)(=O)NCc2ccccc2)c1)C(=O)NC12CC3CC(CC(C3)C1)C2 (stereo not shown) | -0.03 K |
| O=C(O)CCn1cc(C=C2C(=O)NC(=S)NC2=O)c(-c2cccc(Br)c2)n1 | -0.03 K |
| O=C(c1cnc2ccccc2n1)N1CCCC1c1nc2ccccc2s1 (stereo not shown) | -0.04 K |
| CN(C)c1ccc([N+](=O)[O-])cn1 | -0.17 K |
| N#Cc1ccccc1Sc1ccccc1C(=O)Nc1ccc(-c2cn3cccnc3n2)cc1 | -0.14 K |
| O=C(CCC(=O)c1ccccc1)Nc1ccccc1Cc1ccccc1 | -0.15 K |
| CCC(=O)N1N=C(c2ccco2)CC1c1ccc(N(C)C)cc1 (stereo not shown) | 0.08 K |
| O=C(NCc1nnc2ccccn12)c1cn(Cc2ccccc2)nc1-c1ccc(Cl)cc1 | 0.06 K |
| C=CCOc1ccc(C2C(C(=O)c3ccc(C)o3)=C(O)C(=O)N2CCCN2CCOCC2)cc1 (stereo not shown) | -0.01 K |

Shown with tabs: part of the list above.
Structure (SMILES)	TSA(without NAD+) / Primary screening (TSA) / delta Tm (K)
Cc1sc2ncnc(N3CCC(C(=O)N4CCC(C(N)=O)CC4)CC3)c2c1C	0.06 K
CC(C)c1ccc(OCc2nnc(SCC(=O)Nc3ccccc3-c3ccccc3)n2N)cc1	-0.15 K
O=C(O)C1CC(=O)N(c2ccc(S(=O)(=O)N3CCCc4cccc(F)c43)cc2)C1 (stereo not shown)	0.07 K

The listing continues:

| Structure (SMILES) | TSA(without NAD+) / Primary screening (TSA) / delta Tm (K) |
| --- | --- |
| Cc1cccc(Cc2cnc(NC(=O)c3ccc(COc4ccc5c(C)cc(=O)oc5c4)cc3)s2)c1 | 0.07 K |
| N=c1nc[nH]c2c1ncn2CCC(N)=O | -0.07 K |
| Cc1ccc(Cn2c(=O)c3ccccc3n3c(SCC4CCCCO4)nnc23)cc1 (stereo not shown) | -0.22 K |
| CCS(=O)(=O)CCNC(=O)/C=C/c1cccc2ccccc12 | -0.13 K |
| O=C(Nc1cccc(S(=O)(=O)N2CCOCC2)c1)c1ccccc1COc1ccccc1 | -0.13 K |
| CC(C(=O)c1c[nH]c2ccccc12)N(C)CCOc1ccccc1F (stereo not shown) | -0.08 K |
| CC(CN)C1CC1 (stereo not shown) | -0.18 K |
| O=C(CSc1nnc(NCc2ccco2)s1)Nc1nc(-c2ccc(F)cc2)cs1 | -0.13 K |
| Cc1cccc2nc(C(=O)Nc3nc(SCc4ccc(Cl)cc4)n[nH]3)cn12 | -0.03 K |
| COC(=O)c1ccc(C2C(C(=O)c3sc(C)nc3C)=C(O)C(=O)N2CCN2CCOCC2)cc1 (stereo not shown) | -0.03 K |
| COc1ccc(N(Cc2ccc(C(N)=O)cc2)Cc2ccc(C(N)=O)cc2)cc1 | 0.02 K |
| CS(=O)(=O)NN | -0.02 K |
| Cc1nn(-c2ccc(F)cc2)c(C)c1CNCc1ccccc1 | -0.13 K |
| NC1CCCCC1N (stereo not shown) | -0.02 K |
| CN(CC(=O)Nc1ccccc1Cl)C(=O)CNc1cccc(OC(F)(F)F)c1 | 0.08 K |
| CCNCCO | -0.13 K |
| O=C(CN1CCN(C(=O)c2ccccc2C(=O)c2ccccc2)CC1)Nc1ccccc1Cl | 0.02 K |
| COc1cc(CN(C)C(=O)Cn2c(=O)oc3ccccc32)ccc1OCc1ccccc1 | 0.03 K |
| CC1CCN(c2ccc(C(=O)Nc3ncc(C(N)=O)s3)cc2[N+](=O)[O-])CC1 | 0.16 K |
| Cn1c(NCc2cccnc2)c(C#N)c(=O)n(C)c1=O | 0.02 K |
| Cc1noc(C)c1COc1ccccc1C(=O)NCCc1cccnc1 | -0.12 K |
| COC(=O)C1=C(C)OC(CSc2nnc(CCC3CCCC3)[nH]2)C1 (stereo not shown) | -0.11 K |
| CCCN(Cc1nnc(-c2ccccc2Cl)o1)C(=O)c1cccc(S(=O)(=O)N(C)c2ccc(C)cc2)c1 | -0.13 K |
| CCSC1CCC(NC(=O)Cc2cnc3ccccc3c2)C1 (stereo not shown) | -0.24 K |

By substructure: those above with a CF3 group (3)

| Structure (SMILES) | TSA(without NAD+) / Primary screening (TSA) / delta Tm (K) |
| --- | --- |
| CCOc1cc(/C=N/NC(=O)c2cc3c(s2)CCCC3)ccc1OCC(=O)Nc1cccc(C(F)(F)F)c1 | 5.11 K |
| NC(=O)COC(=O)CC1Sc2ccc(C(F)(F)F)cc2NC1=O (stereo not shown) | 0.02 K |
| CN(CC(=O)Nc1ccccc1Cl)C(=O)CNc1cccc(OC(F)(F)F)c1 | 0.08 K |

(cont.)

| Structure (SMILES) | TSA(without NAD+) / Primary screening (TSA) / delta Tm (K) |
| --- | --- |
| Cc1ccc2c(c1)nc(-c1cnc(N3CCCC3)nc1)n2C | -0.05 K |
| O=C(NO)c1cccc(C(F)(F)F)c1 | -0.13 K |
| Cc1ccc(Nc2nc(CSc3nnc(NCc4ccco4)s3)cs2)cc1 | -0.17 K |
| NC(c1ccccc1)c1ccc(Cl)cc1 (stereo not shown) | -0.18 K |
| CC(=O)c1ccccc1NC(=O)c1cc(F)c(F)c(F)c1F | -0.24 K |
| CCN(CC(=O)Nc1ccc(OC)cc1)C(C)C(=O)Nc1ccc(C(N)=O)cc1 (stereo not shown) | 0.08 K |
| CNC(=O)CS | -0.18 K |
| Cc1nc(N2CCC(NC(N)=O)CC2)c2c3c(sc2n1)CCCC3 | -0.03 K |
| Cc1nc(N2CCC(C(N)=O)CC2)c2cc(-c3ccccc3)sc2n1 | -0.21 K |
| CC1CC(C(N)=O)c2ccccc2N1Cc1nc(-c2cccc(C(F)(F)F)c2)no1 (stereo not shown) | -0.22 K |
| Cn1c2ccccc2c2cc(S(=O)(=O)NCc3cccc(NC(=O)C4CC4)c3)ccc21 | -0.03 K |
| O=C(Nc1ccccc1)C1CCN(c2ncnc3scc(-c4ccc(F)cc4)c23)CC1 | -0.02 K |
| CC12CCC(=O)N1C(C(=O)O)Cc1c2[nH]c2ccccc12 (stereo not shown) | 0.12 K |
| Cc1ccccc1-c1nnc(Nc2cccc(S(=O)(=O)N(C)c3ccccc3)c2)o1 | -0.13 K |
| O=C(O)C(O)CS(=O)(=O)O (stereo not shown) | -0.28 K |
| CC(C)(C)c1nc(CN2CCN(c3ncnc4c3oc3ccccc34)CC2)no1 | -0.18 K |
| O=C(c1cc2ccccc2oc1=O)N1CCC(c2ccc(O)cc2)CC1 | -0.37 K |
| Brc1ccc2[nH]c3c(c2c1)CCCCCC3 | 0.19 K |
| CN(c1ccc(OCCCC(C)(C)C#N)cc1)S(=O)(=O)c1ccc(Cl)cc1 | 0.07 K |
| O=[N+]([O-])c1cnn(-c2ncnc3ccsc23)c1 | -0.14 K |
| CCCOc1c(Cl)cc(/C=C/C(=O)Nc2c(C(N)=O)n[nH]c2C)cc1OC | -0.04 K |
| CC(OC(=O)C1=CN2CCS(=O)(=O)N=C2C=C1)C(=O)Nc1ccc(Oc2ccccc2)cc1 (stereo not shown) | 0.02 K |

— publication PMC6925144, “A prospective compound screening contest identified broader inhibitors for Sirtuin 1” (Scientific Reports, 2019)
